Measurements as given in article PMC10290124 (Nature Communications, 2023).
These are yes or no findings as the source states them, for the method shown. Some entries that bind do so weakly or less than the wild type.

Chains of the proteins cited; added tags and fusions are not shown.
UniProt Q9HBA0: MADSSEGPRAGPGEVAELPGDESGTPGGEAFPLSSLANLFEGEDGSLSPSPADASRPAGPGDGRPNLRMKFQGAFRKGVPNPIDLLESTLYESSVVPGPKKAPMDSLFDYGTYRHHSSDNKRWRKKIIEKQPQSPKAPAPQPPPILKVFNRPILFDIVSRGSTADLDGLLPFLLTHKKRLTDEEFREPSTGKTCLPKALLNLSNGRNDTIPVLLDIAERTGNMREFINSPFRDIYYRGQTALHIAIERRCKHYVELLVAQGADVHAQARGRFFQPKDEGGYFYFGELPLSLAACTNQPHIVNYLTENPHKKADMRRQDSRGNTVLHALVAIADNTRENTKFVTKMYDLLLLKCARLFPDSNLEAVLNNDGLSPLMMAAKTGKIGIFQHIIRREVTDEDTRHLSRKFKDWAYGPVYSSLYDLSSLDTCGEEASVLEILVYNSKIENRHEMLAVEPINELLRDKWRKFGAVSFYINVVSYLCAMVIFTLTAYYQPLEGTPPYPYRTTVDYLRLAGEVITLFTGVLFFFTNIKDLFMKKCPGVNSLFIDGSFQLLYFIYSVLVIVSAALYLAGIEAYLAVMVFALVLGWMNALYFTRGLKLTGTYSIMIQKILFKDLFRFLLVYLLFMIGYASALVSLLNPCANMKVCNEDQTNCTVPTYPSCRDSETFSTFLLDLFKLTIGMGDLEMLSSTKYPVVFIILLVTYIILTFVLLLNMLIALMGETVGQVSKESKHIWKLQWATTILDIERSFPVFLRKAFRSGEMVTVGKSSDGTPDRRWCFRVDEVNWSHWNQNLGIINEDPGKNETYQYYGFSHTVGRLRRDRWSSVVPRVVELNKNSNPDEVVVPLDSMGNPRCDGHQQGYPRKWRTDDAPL
UniProt P61586: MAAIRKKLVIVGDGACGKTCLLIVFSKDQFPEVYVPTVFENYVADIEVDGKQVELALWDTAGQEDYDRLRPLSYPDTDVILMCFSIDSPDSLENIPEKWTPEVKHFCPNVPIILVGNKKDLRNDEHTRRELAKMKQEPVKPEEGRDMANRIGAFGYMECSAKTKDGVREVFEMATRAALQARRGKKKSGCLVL

What was measured:
[1] = molecular target: full-length wild-type human TRPV4 (human) (UniProt Q9HBA0); assay: cryo-EM structure; hTRPV4 purified from HEK 293S cells in GDN with endogenous RhoA carried along; supplemented with 200 μM 4α-PDD and 10 mM GTPγS right before grid freezing; 22 °C
[2] = molecular target: full-length wild-type human TRPV4 (human) (UniProt Q9HBA0); assay: cryo-EM structure; hTRPV4 purified from HEK 293S cells in GDN with endogenous RhoA carried along; supplemented with 200 μM HC-067047, incubated 10 min at room temperature; grids frozen at 4 °C
[3] = molecular target: full-length wild-type human TRPV4 (human) (UniProt Q9HBA0); assay: cryo-EM structure; hTRPV4 purified from HEK 293S cells in GDN (20 mM Tris pH 8.0, 150 mM NaCl, 1 mM βME, 0.01% GDN) with endogenous RhoA carried along; apo state, no added ligands; grids frozen at 22 °C

binding [1]: binds
binding [2]: binds
binding [3]: binds
Substance: small GTPase RhoA (from UniProt P61586 1-193)
